Results on 5 molecules are retold here after publication PMC5716708.

Protein sequences, listed by entry. Tags and fused reporters are not part of them. Lines headed by an entry give the natural chain unless they say otherwise; changes in a name come on top. Residues count along the entry.
UniProt P07333: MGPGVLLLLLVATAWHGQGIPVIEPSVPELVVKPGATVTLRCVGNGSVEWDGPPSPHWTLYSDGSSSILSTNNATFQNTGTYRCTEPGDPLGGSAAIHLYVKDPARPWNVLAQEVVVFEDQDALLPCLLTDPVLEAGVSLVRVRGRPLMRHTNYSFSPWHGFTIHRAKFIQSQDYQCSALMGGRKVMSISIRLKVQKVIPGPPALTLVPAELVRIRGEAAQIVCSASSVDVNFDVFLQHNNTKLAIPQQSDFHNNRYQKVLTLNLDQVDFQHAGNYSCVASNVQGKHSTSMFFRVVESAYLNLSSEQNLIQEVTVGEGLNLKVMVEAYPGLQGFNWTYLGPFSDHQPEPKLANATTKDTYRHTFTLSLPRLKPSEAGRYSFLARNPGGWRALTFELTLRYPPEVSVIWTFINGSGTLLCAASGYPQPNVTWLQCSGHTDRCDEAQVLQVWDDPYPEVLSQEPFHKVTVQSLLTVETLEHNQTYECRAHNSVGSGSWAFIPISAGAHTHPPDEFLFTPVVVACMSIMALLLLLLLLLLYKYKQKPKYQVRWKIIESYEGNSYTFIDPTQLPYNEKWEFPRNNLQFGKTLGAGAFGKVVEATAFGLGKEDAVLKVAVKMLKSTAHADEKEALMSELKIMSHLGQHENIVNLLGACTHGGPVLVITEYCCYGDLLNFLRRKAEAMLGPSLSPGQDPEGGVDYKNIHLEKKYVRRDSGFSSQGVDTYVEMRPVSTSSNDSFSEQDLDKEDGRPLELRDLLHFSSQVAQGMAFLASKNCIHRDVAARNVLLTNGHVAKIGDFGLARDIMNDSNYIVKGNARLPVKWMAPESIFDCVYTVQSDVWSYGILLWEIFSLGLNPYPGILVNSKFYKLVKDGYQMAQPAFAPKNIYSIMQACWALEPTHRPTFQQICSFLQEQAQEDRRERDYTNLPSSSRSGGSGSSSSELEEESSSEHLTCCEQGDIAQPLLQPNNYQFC
CSF-1R in the cell lysates of Figure 7C: residues 20-972 of P07333

Test [1] deals with CSF-1R wild type (Full 1-972), pGilda bait (UniProt P07333). The test can be described thus: two-hybrid; Matchmaker LexA system in yeast EGY48; wild type and deleted CSF-1R in pGilda as baits, wild type and deleted TSC-22 in pB42AD as preys; growth on plates lacking leucine and β-galactosidase on X-gal plates; 30°C.
For test [2], the target named is CSF-1R expressed from pcDNA4-CSF-1R (UniProt P07333). The test can be described thus: co-IP; HEK293a cells transfected with TSC-22 and CSF-1R plasmids; NP-40 lysis buffer (20mM Tris-HCl pH8.0, 150mM NaCl, 1% NP-40); IP with CSF-1R or TSC-22 antibody overnight at 4°C, protein A/G agarose; western blot.
The target in test [3] is CSF-1R in the cell lysates of Figure 7C (UniProt P07333). The experiment in a line: co-IP; cell lysates with and without overexpressed TSC-22 (Figure 7C); IP with TSC-22 or CSF-1R antibody, immunoblot for CSF-1R, TSC-22 or CSF-1; NP-40 lysis buffer.

Results are given in words; binding and its absence hold for the method and conditions named. For some assays here: Binding seen in cells or lysates may run through a third protein. Some entries that bind do so weakly or less than the wild type.

B1: TSC-22 deletion construct 1-52, pB42AD prey (domain or fragment, UniProt Q15714-2 1-52)
chain: MKSQWCRPVAMDLGVYQLRHFSISFLSSLLGTENASVRLDNSSSGASVVAID
As for B1, the binding entry in test [1] is given as “binds”.

B2: TSC-22 wild type (Full 1-144), pB42AD prey (protein, UniProt Q15714-2 1-144)
chain: MKSQWCRPVAMDLGVYQLRHFSISFLSSLLGTENASVRLDNSSSGASVVAIDNKIEQAMDLVKSHLMYAVREEVEVLKEQIKELIEKNSQLEQENNLLKTLASPEQLAQFQAQLQTGSPPATTQPQGTTQPPAQPASQGSGPTA
For B2, the binding entry in test [1] is on record as “binds”.

B3: TSC-22 expressed from pcDNA4-TSC-22 (protein, UniProt Q15714-2 1-144)
chain: MKSQWCRPVAMDLGVYQLRHFSISFLSSLLGTENASVRLDNSSSGASVVAIDNKIEQAMDLVKSHLMYAVREEVEVLKEQIKELIEKNSQLEQENNLLKTLASPEQLAQFQAQLQTGSPPATTQPQGTTQPPAQPASQGSGPTA
With B3, in test [2], the binding result is on record as “binds”.

B4: Colony stimulating factor-1 (CSF-1) in the cell lysates of Figure 7C (ligand, UniProt P09603 33-554)
chain: EEVSEYCSHMIGSGHLQSLQRLIDSQMETSCQITFEFVDQEQLKDPVCYLKKAFLLVQDIMEDTMRFRDNTPNAIAIVQLQELSLRLKSCFTKDYEEHDKACVRTFYETPLQLLEKVKNVFNETKNLLDKDWNIFSKNCNNSFAECSSQDVVTKPDCNCLYPKAIPSSDPASVSPHQPLAPSMAPVAGLTWEDSEGTEGSSLLPGEQPLHTVDPGSAKQRPPRSTCQSFEPPETPVVKDSTIGGSPQPRPSVGAFNPGMEDILDSAMGTNWVPEEASGEASEIPVPQGTELSPSRPGGGSMQTEPARPSNFLSASSPLPASAKGQQPADVTGTALPRVGPVRPTGQDWNHTPQKTDHPSALLRDPPEPGSPRISSLRPQGLSNPSTLSAQPQLSRSHSSGSVLPLGELEGRRSTRDRRSPAEPEGGPASEGAARPLPRFNSVPLTDTGHERQSEGSFSPQLQESVFHLLVPSVILVLLAVGGLLFYRWRRRSHQEPQRADSPLEQPEGSPLTQDDRQVELPV
Take B4: the binding result in test [3] was “binds”.

B5: TSC-22 deletion construct 111-144, pB42AD prey (domain or fragment, UniProt Q15714-2 111-144)
chain: QAQLQTGSPPATTQPQGTTQPPAQPASQGSGPTA
As to B5, the binding entry in test [1] is recorded as “binds”.
